Data: PubChem BioAssay AID1487 (National Center for Advancing Translational Sciences (NCATS), 2009)
The campaign covered roughly 200,000 compounds. About 25 (0.01%) were called active. Inconclusive means that the source gave no clear call. Such entries were picked first, then a sample of the others. The call rests on the fitted dose curve; in most records, active means well fitted inhibition curve with a large enough effect in the signal ratio, with a control signal flat (not every such curve was filed as active); inconclusive means small, poorly fitted or top-dose-only effect, or effect the other way, or a change in a side signal; inactive means flat fitted curve, though single readings scatter; the % refers to the signal ratio. A potency beside an inconclusive call is a rough fit, not a confirmed value.

Assay: qHTS Assay for Modulators of Lamin A Splicing
Settings: HeLa LMNA splicing GFP/RFP minigene ratio, 48 h; ratio change, negative = inhibition: at 46.1 µM (top of the series) unless noted
Summary of the method: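 S3 HeLa cells stably expressing lamin A-EGFP splicing minigene plus DsRed2, 600 cells/well, 48 h compound exposure at 37C. Laser-scanning cytometry; analysed as GFP (500-530 nm)/RFP (575-640 nm) total intensity ratio; 0.5% DMSO vehicle.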
On the % scale 0 is the no-effect control and ±100 the full control effect; potency means the concentration at half of the fitted maximal effect.

| SMILES | ratio change, negative = inhibition | Potency |
| --- | --- | --- |
| COc1ccc(CC(=O)NCc2n[nH]c(=S)n2-c2ccc(F)cc2)cc1 | inconclusive: 28% [at 46 µM] | – |
| CCOc1ccc(C2C(C(=O)c3ccco3)=C(O)C(=O)N2Cc2cccnc2)cc1OC (stereo not drawn) | inactive: 7.95% | – |
| O=C(CSc1ccc2nc(-c3ccccc3)cn2n1)Nc1ccccc1 | inconclusive: 20.4% [at 46 µM] | – |
| Cc1ccc(-n2c(Cc3ccccc3)n[nH]c2=S)c(C)c1 | inactive: -0.484% [at 46 µM] | – |
| CCCOc1ccc(OC(=O)c2ccc(Br)o2)cc1 | – | inconclusive: 11.2 µM [inhibitor, partial curve] |
| CC(=O)c1ccc(NC(=O)CSc2nccn2C2CCCC2)cc1 | inactive: 19.6% [at 46 µM] | – |
| COC(=O)C1=C(O)/C(=C\c2ccc(CNC(=O)C(=O)Nc3ccc(C)c(C)c3)o2)N=C1C | inactive: -2.18% | – |
| CCN(CC)C(=O)C(=O)c1cn(CC(=O)NCc2ccc3c(c2)OCO3)c2ccccc12 | inconclusive: -4.62% [at 46 µM] | – |
| Cc1nc2ccccc2n1CCc1nc2c3ccccc3nc(=S)n2[nH]1 | inactive: 0.737% | – |
| COc1ccc2nc(N3CCN(C(=O)CS(=O)(=O)c4ccc(C)cc4)CC3)sc2c1 | inconclusive: -26.8% [at 46 µM] | – |
| COc1ccc(C)cc1NC1(c2ccccc2)C(=O)c2ccccc2C1=O | inconclusive: -6.55% [at 46 µM] | – |
| CCNc1ncc2nc(-c3cn(C)c4ccccc34)c(=O)n(Cc3cccs3)c2n1 | inconclusive: -25.6% | – |
| Cc1ccc(-n2nnnc2CSc2nnc(-c3ccc(O)cc3)o2)cc1 | inconclusive: -16.5% | – |
| CC(C)CCNC(=S)Nc1ccc(Br)cc1 | – | inconclusive: 35.5 µM [fluorescent, single point] |
| O=C(Nc1cccc2c1CCCC2)C1CCN(c2nnnn2-c2ccccc2)CC1 | inactive: -9.79% | – |
| O=C(CSc1nnnn1-c1ccccc1)NC(=O)NCc1ccco1 | inactive: 3.77% | – |
| CCCn1c(SCC(=O)Nc2ccc(OCC)cc2)nnc1C(C)C | inactive: -14.2% | – |
| Cc1ccc(C(=O)N2CCN(c3ccccc3)CC2)cc1NC(=O)c1nsc2ccccc12 | inconclusive: 2.13% [at 46 µM] | – |
| COCCn1c(-c2ccc(-c3ccc([N+](=O)[O-])cc3Br)o2)nc2c1c(=O)[nH]c(=O)n2CC(C)C | inactive: -16% [at 46 µM] | – |
| O=C(Nc1nnc(C2=COCCO2)o1)c1ccc(S(=O)(=O)N2CCCC2)cc1 | inconclusive: 19.4% [at 9.22 µM] | – |
| COCCCNC(=O)CCCn1c(=O)c2ccccc2n(CC(=O)Nc2c(C)cc(C)cc2C)c1=O | inconclusive: 3.54% | – |
| O=C1c2ccccc2C(=O)N1CSc1nnc2c3ccccc3n(CCc3ccccc3)c2n1 | inactive: 0.0142% | – |
| Cc1cc(C)c(Cn2cnc(-c3ccc([N+](=O)[O-])cc3)c2)c(C)c1 | – | inconclusive: 6.31 µM [inhibitor, partial curve] |

Ordered by formula weight (smallest number first): part of the list above

| SMILES | ratio change, negative = inhibition | Potency |
| --- | --- | --- |
| Cc1ccc(-n2c(Cc3ccccc3)n[nH]c2=S)c(C)c1 | inactive: -0.484% [at 46 µM] | – |
| CC(C)CCNC(=S)Nc1ccc(Br)cc1 | – | inconclusive: 35.5 µM [fluorescent, single point] |
| CCNc1ncc2nc(-c3cn(C)c4ccccc34)c(=O)n(Cc3cccs3)c2n1 | inconclusive: -25.6% | – |
| COC(=O)C1=C(O)/C(=C\c2ccc(CNC(=O)C(=O)Nc3ccc(C)c(C)c3)o2)N=C1C | inactive: -2.18% | – |
| COc1ccc2nc(N3CCN(C(=O)CS(=O)(=O)c4ccc(C)cc4)CC3)sc2c1 | inconclusive: -26.8% [at 46 µM] | – |
